One substance from article PMC12412546 can be followed below.

Sequences of proteins named here, by UniProt entry; tags and fusion partners are left off.
UniProt P46940: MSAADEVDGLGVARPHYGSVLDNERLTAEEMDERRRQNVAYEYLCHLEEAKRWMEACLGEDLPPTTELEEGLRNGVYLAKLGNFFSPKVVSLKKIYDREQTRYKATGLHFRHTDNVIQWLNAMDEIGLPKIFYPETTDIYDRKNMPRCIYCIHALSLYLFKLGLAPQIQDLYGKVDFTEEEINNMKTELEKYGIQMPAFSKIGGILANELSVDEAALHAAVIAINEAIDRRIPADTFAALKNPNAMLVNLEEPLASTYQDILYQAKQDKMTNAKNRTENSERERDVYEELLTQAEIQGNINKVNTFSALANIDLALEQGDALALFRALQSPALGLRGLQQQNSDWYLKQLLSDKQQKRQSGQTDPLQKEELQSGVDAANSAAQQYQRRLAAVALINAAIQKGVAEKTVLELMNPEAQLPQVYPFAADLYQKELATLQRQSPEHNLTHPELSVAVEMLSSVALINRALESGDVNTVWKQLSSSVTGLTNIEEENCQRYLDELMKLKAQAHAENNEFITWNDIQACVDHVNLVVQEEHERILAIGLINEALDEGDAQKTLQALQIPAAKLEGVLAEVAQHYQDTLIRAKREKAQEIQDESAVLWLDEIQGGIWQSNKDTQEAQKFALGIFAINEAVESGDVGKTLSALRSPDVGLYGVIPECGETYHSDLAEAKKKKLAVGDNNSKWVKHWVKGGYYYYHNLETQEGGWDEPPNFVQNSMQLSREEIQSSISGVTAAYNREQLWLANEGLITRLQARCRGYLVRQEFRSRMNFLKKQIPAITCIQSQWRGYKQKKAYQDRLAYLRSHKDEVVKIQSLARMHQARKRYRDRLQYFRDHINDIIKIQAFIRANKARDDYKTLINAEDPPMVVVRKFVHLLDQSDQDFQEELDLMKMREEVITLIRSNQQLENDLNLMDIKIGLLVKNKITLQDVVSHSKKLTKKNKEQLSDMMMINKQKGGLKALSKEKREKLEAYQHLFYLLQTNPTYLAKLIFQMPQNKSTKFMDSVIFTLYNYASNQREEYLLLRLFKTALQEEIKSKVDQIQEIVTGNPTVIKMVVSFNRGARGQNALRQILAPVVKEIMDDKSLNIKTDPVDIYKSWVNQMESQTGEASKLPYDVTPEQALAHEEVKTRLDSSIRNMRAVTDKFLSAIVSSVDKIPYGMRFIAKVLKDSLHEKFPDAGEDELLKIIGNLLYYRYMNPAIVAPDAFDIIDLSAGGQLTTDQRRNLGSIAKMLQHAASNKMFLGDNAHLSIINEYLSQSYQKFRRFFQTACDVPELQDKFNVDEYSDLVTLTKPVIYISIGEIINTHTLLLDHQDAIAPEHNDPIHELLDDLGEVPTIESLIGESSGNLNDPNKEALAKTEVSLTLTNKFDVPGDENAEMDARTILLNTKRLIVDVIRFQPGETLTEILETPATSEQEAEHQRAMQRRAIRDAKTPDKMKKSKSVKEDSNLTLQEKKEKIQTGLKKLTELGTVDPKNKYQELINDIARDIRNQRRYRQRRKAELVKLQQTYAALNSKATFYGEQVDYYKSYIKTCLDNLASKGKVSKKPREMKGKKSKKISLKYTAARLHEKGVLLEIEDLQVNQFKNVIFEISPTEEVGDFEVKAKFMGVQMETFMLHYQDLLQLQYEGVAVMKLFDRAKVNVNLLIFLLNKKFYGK

The target in this assay is T1, cytoskeletal associated protein Palladin (PALLD) (human (endogenous in the paper's human pancreatic cell lines; line not stated for this experiment)) (UniProt Q8WX93).
T1 sequence: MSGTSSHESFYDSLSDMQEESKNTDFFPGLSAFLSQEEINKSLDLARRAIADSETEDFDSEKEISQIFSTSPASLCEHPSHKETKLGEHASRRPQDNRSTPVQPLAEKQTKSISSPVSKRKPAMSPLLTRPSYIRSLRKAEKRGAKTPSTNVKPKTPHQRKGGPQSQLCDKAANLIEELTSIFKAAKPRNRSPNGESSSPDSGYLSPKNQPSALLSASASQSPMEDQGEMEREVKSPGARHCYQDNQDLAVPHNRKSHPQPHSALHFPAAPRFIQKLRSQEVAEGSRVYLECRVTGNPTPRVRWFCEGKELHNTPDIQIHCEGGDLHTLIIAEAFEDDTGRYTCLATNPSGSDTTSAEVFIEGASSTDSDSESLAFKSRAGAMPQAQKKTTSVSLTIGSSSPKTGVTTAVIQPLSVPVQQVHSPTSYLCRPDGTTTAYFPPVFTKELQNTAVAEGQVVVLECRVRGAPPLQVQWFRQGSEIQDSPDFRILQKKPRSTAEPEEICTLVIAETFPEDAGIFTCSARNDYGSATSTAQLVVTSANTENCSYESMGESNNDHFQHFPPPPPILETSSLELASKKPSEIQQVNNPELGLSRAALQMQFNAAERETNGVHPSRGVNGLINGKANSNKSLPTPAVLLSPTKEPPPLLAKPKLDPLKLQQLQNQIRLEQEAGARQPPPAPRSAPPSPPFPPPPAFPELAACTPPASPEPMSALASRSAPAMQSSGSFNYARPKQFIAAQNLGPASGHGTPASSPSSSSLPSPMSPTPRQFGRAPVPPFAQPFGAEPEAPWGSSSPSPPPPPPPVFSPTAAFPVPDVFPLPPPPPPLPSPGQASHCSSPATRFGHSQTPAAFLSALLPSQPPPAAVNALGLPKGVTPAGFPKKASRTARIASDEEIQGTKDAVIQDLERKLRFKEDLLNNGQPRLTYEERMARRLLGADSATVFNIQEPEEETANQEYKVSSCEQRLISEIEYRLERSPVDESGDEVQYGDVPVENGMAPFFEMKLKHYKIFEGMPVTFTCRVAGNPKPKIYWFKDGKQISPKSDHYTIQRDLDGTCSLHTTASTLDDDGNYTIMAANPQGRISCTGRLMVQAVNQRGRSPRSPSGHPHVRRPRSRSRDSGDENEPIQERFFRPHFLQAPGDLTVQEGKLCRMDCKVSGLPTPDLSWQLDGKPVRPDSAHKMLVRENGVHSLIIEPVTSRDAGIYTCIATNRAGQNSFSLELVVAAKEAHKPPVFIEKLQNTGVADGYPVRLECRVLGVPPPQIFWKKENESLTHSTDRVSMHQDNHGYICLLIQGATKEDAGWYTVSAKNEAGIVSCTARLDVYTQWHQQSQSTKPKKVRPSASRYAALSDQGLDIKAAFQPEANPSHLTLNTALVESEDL
In words: co-IP; immunoprecipitate analysed by western blot (Figure 6J); which protein was precipitated and which cells were used is not told. A general note: A western blot detects proteins with antibodies after separation by electrophoresis.

Results are given in words; binding and its absence hold for the method and conditions named. In cells and extracts the contact can be indirect. Some results given as binding are weak or reduced against the parent protein; the word gives no strength. Sequences can lack the tags named with a protein.

“IQ motif containing GTPase-activating protein 1 (IQGAP1) (from UniProt P46940 1-1657)”: the binding result was “binds”.
